The record followed here is US20050112108.

The exact form of at least one protein or probe is not confirmed. Negatives hold for the conditions tested.

In data set [1] the target is GAAP-1 mtZ2 second zinc finger Cys/His substituted by Arg (positions not given) (Homo sapiens) (UniProt P15822). Briefly: EMSA. The note with it: protein translated in vitro; label: 32P.
For data set [2], the target named is GAAP-1 mtZ1 first zinc finger Cys/His substituted by Arg (positions not given) (Homo sapiens) (UniProt P15822). Description: EMSA. As to conditions: protein translated in vitro; label: 32P.

For the sequence “AATGCAGGATTCCTCCAAAATGATTTCCAC (double strand) [IPCS-p53 EMSA probe]”, the binding result in data set [1] and in data set [2] was “no binding” throughout.

“GATCCTCTGGGGATTCCCCATGGA (double strand) [NF-kB-MHC]”: the binding result in data set [1] and in data set [2] was “no binding” each time.
